# Laboratory results from doi:10.1101/719625.
# Sequences of proteins named here, by UniProt entry; tags and fusion partners are left off.
# UniProt Q5TZA2: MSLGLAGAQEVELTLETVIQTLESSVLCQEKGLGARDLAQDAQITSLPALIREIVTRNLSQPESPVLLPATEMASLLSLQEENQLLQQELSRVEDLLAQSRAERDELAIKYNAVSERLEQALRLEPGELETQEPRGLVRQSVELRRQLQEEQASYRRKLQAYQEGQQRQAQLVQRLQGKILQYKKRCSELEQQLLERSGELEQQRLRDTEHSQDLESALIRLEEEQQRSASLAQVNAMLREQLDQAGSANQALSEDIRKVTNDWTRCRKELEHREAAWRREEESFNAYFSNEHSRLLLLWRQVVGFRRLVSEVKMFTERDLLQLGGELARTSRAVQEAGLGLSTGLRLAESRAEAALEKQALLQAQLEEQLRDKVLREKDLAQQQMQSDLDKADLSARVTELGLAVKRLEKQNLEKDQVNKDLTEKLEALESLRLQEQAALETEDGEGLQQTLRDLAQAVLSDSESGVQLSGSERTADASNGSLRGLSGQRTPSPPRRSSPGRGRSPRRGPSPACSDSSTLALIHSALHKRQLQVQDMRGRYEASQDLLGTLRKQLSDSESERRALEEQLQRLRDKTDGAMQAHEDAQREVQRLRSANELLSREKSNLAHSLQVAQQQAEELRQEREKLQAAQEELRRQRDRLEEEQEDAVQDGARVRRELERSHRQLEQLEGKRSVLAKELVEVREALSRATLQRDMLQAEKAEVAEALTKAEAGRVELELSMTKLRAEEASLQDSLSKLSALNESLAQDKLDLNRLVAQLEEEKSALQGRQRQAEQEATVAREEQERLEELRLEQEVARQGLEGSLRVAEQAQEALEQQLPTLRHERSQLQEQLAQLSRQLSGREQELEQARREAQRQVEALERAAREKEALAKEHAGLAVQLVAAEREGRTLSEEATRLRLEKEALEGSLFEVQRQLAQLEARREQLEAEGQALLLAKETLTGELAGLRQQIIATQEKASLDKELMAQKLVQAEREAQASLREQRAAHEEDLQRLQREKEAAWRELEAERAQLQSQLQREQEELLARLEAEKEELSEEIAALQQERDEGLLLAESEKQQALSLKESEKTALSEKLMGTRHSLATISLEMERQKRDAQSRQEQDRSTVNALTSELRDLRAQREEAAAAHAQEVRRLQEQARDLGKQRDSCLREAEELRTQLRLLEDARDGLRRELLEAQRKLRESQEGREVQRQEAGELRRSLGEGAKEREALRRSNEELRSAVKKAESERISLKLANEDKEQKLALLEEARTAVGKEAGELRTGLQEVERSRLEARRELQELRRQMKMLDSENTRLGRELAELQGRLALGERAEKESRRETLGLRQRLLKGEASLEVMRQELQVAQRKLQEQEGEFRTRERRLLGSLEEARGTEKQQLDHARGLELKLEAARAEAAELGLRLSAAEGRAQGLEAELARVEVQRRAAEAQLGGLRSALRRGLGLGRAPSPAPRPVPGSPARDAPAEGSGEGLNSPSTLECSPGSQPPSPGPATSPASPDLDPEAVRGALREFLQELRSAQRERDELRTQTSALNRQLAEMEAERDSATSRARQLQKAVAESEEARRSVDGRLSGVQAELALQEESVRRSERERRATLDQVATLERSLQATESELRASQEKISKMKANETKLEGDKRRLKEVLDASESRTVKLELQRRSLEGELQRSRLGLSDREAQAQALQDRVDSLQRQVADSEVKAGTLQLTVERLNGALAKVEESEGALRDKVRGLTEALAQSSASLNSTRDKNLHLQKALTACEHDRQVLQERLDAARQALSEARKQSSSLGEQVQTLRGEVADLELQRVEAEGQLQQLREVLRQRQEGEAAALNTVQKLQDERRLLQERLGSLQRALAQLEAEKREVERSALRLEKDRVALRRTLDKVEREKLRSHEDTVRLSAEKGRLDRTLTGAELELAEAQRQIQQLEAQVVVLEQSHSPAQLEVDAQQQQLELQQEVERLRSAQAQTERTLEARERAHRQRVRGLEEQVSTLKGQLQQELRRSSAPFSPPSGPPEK
# No constants are given. Whether binding was seen depends on the method and setting. Binding seen in cells or lysates may run through a third protein. Some entries that bind do so weakly or less than the wild type.
# B1: ADP ribosylation factor-like 2-binding protein (ARL2BP/BART) (protein, UniProt Q9Y2Y0 1-163)
# chain: MDALEGESFALSFSSASDAEFDAVVGYLEDIIMDDEFQLLQRNFMDKYYLEFEDTEENKLIYTPIFNEYISLVEKYIEEQLLQRIPEFNMAAFTTTLQHHKDEVAGDIFDMLLTFTDFLAFKEMFLDYRAEKEGRGLDLSSGLVVTSLCKSSSLPASQNNLRH
# Target: ZikV-NS5-GFP (Zika virus)
# Assay: pull-down
row,Molecule,binding
1,rootlet coiled-coil protein (CROCC/Rootletin) (from UniProt Q5TZA2 1-2017),binds
2,B1,binds
